# Measurements: the supplement of paper PMC8728848
# The list shows a part of the results.
# Experiments:
# Experiment in all cases: glycan array binding signal (z-score within array); higher = stronger binding
# Settings in all cases: glycan notation: IUPAC condensed, linker removed
# [1] = molecular target: Fuc(a1-2)Gal
# Outline: (§1)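 Negative Z-scores can be read as non-binding. The Z-score is calculated within each array and then averaged across arrays of one protein sequence at different concentrations or buffers and across linkers. Arrays, 3228 in all, were curated from the Consortium for Functional Glycomics database and kept only where the protein sequence was available.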
# [2] = molecular target: Fuc(a1-2)Gal(b1-3)GalNAc
# Outline: as §1
# [3] = molecular target: Fuc(a1-2)Gal(b1-3)GalNAc(b1-3)Gal
# Outline: as §1
# [4] = molecular target: Fuc(a1-2)Gal(b1-3)GalNAc(b1-3)Gal(a1-4)Gal(b1-4)Glc
# Outline: as §1
# [5] = molecular target: Fuc(a1-2)Gal(b1-3)GalNAc(b1-4)[Neu5Ac(a2-3)]Gal(b1-4)Glc
# Outline: as §1
# [6] = molecular target: Fuc(a1-2)Gal(b1-3)GlcNAc
# Outline: as §1
# [7] = molecular target: Fuc(a1-2)Gal(b1-3)GlcNAc(b1-2)Man(a1-3)[Fuc(a1-2)Gal(b1-3)GlcNAc(b1-2)Man(a1-6)]Man(b1-4)GlcNAc(b1-4)GlcNAc
# Outline: as §1
# [8] = molecular target: Fuc(a1-2)Gal(b1-3)GlcNAc(b1-3)Gal(b1-4)Glc
# Outline: as §1
# [9] = molecular target: Fuc(a1-2)Gal(b1-3)GlcNAc(b1-3)[Gal(b1-4)[Fuc(a1-3)]GlcNAc(b1-6)]Gal(b1-4)Glc
# Outline: as §1
# [10] = molecular target: Fuc(a1-2)Gal(b1-3)[Fuc(a1-4)]GlcNAc
# Outline: as §1
# [11] = molecular target: Fuc(a1-2)Gal(b1-3)[Fuc(a1-4)]GlcNAc(b1-2)Man(a1-3)[Fuc(a1-2)Gal(b1-3)[Fuc(a1-4)]GlcNAc(b1-2)Man(a1-6)]Man(b1-4)GlcNAc(b1-4)GlcNAc
# Outline: as §1
# [12] = molecular target: Fuc(a1-2)Gal(b1-4)Glc
# Outline: as §1
# [13] = molecular target: Fuc(a1-2)Gal(b1-4)Glc6S
# Outline: as §1
# [14] = molecular target: Fuc(a1-2)Gal(b1-4)GlcNAc
# Outline: as §1
# [15] = molecular target: Fuc(a1-2)Gal(b1-4)GlcNAc(b1-2)Man(a1-3)[Fuc(a1-2)Gal(b1-4)GlcNAc(b1-2)Man(a1-6)]Man(b1-4)GlcNAc(b1-4)GlcNAc
# Outline: as §1
# [16] = molecular target: Fuc(a1-2)Gal(b1-4)GlcNAc(b1-3)Gal(b1-4)GlcNAc
# Outline: as §1
# [17] = molecular target: Fuc(a1-2)Gal(b1-4)GlcNAc(b1-3)Gal(b1-4)GlcNAc(b1-3)Gal(b1-4)GlcNAc
# Outline: as §1
# [18] = molecular target: Fuc(a1-2)Gal(b1-4)GlcNAc6S
# Outline: as §1
# [19] = molecular target: Fuc(a1-2)Gal(b1-4)[Fuc(a1-3)]GlcNAc
# Outline: as §1
# [20] = molecular target: Fuc(a1-2)Gal(b1-4)[Fuc(a1-3)]GlcNAc(b1-2)Man(a1-3)[Fuc(a1-2)Gal(b1-4)[Fuc(a1-3)]GlcNAc(b1-2)Man(a1-6)]Man(b1-4)GlcNAc(b1-4)GlcNAc
# Outline: as §1
# [21] = molecular target: Fuc(a1-2)Gal(b1-4)[Fuc(a1-3)]GlcNAc(b1-3)Gal(b1-4)[Fuc(a1-3)]GlcNAc
# Outline: as §1
# [22] = molecular target: Fuc(a1-2)Gal(b1-4)[Fuc(a1-3)]GlcNAc(b1-3)Gal(b1-4)[Fuc(a1-3)]GlcNAc(b1-3)Gal(b1-4)[Fuc(a1-3)]GlcNAc
# Outline: as §1
# [23] = molecular target: Fuc(a1-2)Gal6S(b1-4)Glc
# Outline: as §1
# [24] = molecular target: Fuc(a1-2)Gal6S(b1-4)Glc6S
# Outline: as §1
# [25] = molecular target: Fuc(a1-2)Gal6S(b1-4)GlcNAc
# Outline: as §1
# [26] = molecular target: Fuc(a1-2)[Gal(a1-3)]Gal
# Outline: as §1
# [27] = molecular target: Fuc(a1-2)[Gal(a1-3)]Gal(b1-3)GlcNAc
# Outline: as §1
# [28] = molecular target: Fuc(a1-2)[Gal(a1-3)]Gal(b1-3)GlcNAc(b1-2)Man(a1-3)[Fuc(a1-2)[Gal(a1-3)]Gal(b1-3)GlcNAc(b1-2)Man(a1-6)]Man(b1-4)GlcNAc(b1-4)GlcNAc
# Outline: as §1
# [29] = molecular target: Fuc(a1-2)[Gal(a1-3)]Gal(b1-4)Glc
# Outline: as §1
# [30] = molecular target: Fuc(a1-2)[Gal(a1-3)]Gal(b1-4)GlcNAc
# Outline: as §1
binder,measurement,setting,value
"CTLX (Homo sapiens), Q6UXS0 (protein) SLCPLFWMEFKGHCYRFFPLNKTWAEADLYCSEFSVGRKSAKLASIHSWEENVFVYDLVNSCVPGIPADVWTGLHDHRQEGQFEWTDGSSYDYSYWDGSQPDDGVHADPEEEDCVQIWYRPTSALRSWNDNTCSRKFPFVCKIPSLTIH",glycan array binding signal (z-score),[1],-0.994
same,glycan array binding signal (z-score),[2],1.99
same,glycan array binding signal (z-score),[3],0.292
same,glycan array binding signal (z-score),[4],-0.375
same,glycan array binding signal (z-score),[5],0.814
same,glycan array binding signal (z-score),[6],-0.528
same,glycan array binding signal (z-score),[7],1.62
same,glycan array binding signal (z-score),[8],-0.331
same,glycan array binding signal (z-score),[9],0.273
same,glycan array binding signal (z-score),[10],-0.189
same,glycan array binding signal (z-score),[11],1.46
same,glycan array binding signal (z-score),[12],0.198
same,glycan array binding signal (z-score),[13],-0.666
same,glycan array binding signal (z-score),[14],0.14
same,glycan array binding signal (z-score),[15],-0.221
same,glycan array binding signal (z-score),[16],0.681
same,glycan array binding signal (z-score),[17],1.56
same,glycan array binding signal (z-score),[18],-0.548
same,glycan array binding signal (z-score),[19],-0.691
same,glycan array binding signal (z-score),[20],3.01
same,glycan array binding signal (z-score),[21],-0.669
same,glycan array binding signal (z-score),[22],1.57
same,glycan array binding signal (z-score),[23],0.894
same,glycan array binding signal (z-score),[24],-0.84
same,glycan array binding signal (z-score),[25],-0.241
same,glycan array binding signal (z-score),[26],-0.251
same,glycan array binding signal (z-score),[27],0.022
same,glycan array binding signal (z-score),[28],-0.497
same,glycan array binding signal (z-score),[29],1.18
same,glycan array binding signal (z-score),[30],-0.689
